PMC3234227
No constants are given. Whether binding was seen depends on the method and setting. Some results given as binding are weak or reduced against the parent protein; the word gives no strength.

Chains of the proteins cited; added tags and fusions are not shown.
UniProt Q12983: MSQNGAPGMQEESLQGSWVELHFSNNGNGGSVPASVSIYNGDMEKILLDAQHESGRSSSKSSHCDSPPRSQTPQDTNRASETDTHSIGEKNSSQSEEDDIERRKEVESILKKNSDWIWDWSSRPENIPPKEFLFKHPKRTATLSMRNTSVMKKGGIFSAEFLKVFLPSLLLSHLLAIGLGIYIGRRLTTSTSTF
UniProt Q96NL1: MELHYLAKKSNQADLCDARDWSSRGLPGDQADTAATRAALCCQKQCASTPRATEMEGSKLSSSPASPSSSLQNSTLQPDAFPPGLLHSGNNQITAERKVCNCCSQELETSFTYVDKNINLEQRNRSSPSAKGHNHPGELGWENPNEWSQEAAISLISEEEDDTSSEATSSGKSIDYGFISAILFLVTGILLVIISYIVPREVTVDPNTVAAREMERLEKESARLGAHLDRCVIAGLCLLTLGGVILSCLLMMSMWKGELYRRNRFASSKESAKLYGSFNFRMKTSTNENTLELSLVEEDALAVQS

Target: BNIP3, yeast two-hybrid fusion (human) (UniProt Q12983)

binding: binds
Substance: TMEM74, yeast two-hybrid fusion (from UniProt Q96NL1 1-305)
